{"source": "patent US20060004197A1", "about": "“Sulfonamide-based compounds as protein tyrosine kinase inhibitors” (priority 2004, published 2006)", "molecular_target": "FGF receptor (FGFr)", "experiment": "FGFr tyrosine kinase activity, poly E4Y / 32P-ATP phosphorylation assay", "format": "biochemical", "key": {"[1]": {"details": "poly E4Y / 32P-ATP, Formula IV compounds"}, "[2]": {"details": "Table 3, Formula II compounds, NI = no inhibition at 100 μg/mL"}}, "note": "At least one compound was matched to its structure with a doubt left."}
{"smiles": "COC(=O)c1cc(Oc2ccc(OC)cc2)ccc1NS(=O)(=O)c1ccc(C)cc1", "note": "[Compound 67, methyl 5-(4-methoxy-phenoxy)-2-(4-toluenesulfonylamino)-benzoate]", "values": [{"measurement": "IC50", "setting": "[1]", "value": 246, "unit": "µM"}]}
{"smiles": "COc1ccc(Oc2ccc(NS(=O)(=O)c3ccc(C)cc3)c(OP(=O)(O)O)c2)cc1", "note": "[Compound 43, [5-(4-methoxy-phenoxy)-2-(4-toluenesulfonylamino)-phenyl]-phosphate]", "values": [{"measurement": "IC50", "setting": "[1]", "value": 29, "unit": "µM"}]}
{"smiles": "Cc1ccc(S(=O)(=O)Nc2ccc(Cl)cc2NS(=O)(=O)c2ccc(C)cc2)cc1", "note": "[Compound 6, N-[4-chloro-2-(4-toluenesulfonylamino)-phenyl]-4-toluenesulfonamide]", "values": [{"measurement": "IC50", "setting": "[2]", "value": 736, "unit": "µM"}]}
{"smiles": "COc1ccc(Oc2ccc(NS(=O)(=O)c3ccc([N+](=O)[O-])cc3)c(NS(=O)(=O)c3ccc([N+](=O)[O-])cc3)c2)cc1", "note": "[Compound 12r, N-[4-(4-methoxy-phenoxy)-2-(4-nitrobenzenesulfonylamino)-phenyl]-4-nitrobenzenesulfonamide]", "values": [{"measurement": "IC50", "setting": "[2]", "value": 15, "unit": "µM"}]}
